According to article PMC3774174 (Nature biotechnology, 2013):

System: kinase collection (kinase–HSP90 interactions)
Format: cell-based, human
Conditions: 5 μM, 1 hour

Structure (SMILES): CN[C@@H]1C[C@H]2O[C@@](C)([C@@H]1OC)n1c3ccccc3c3c4c(c5c6ccccc6n2c5c31)C(=O)NC4 [staurosporine]
- kinase–HSP90 interactions significantly reduced: 45%
